Molecular target: Bromodomain-containing protein 4 (Homo sapiens, UniProt O60885)
Experiment: Displacement of biotinylated H4(1 to 24 amino acid residues)-K5/8/12/16Ac from human N-terminal His6-tagged BRD4 bromodomain-1 expressed in Escherichia coli BL21(DE3) cells by alpha screen assay

For `Cc1cccc(Oc2nccc(-c3c(-c4ccc(F)cc4)ncn3C3CCNCC3)n2)c1C`, the IC50 was 2500 nM.

Source: ChEMBL document CHEMBL3751772, “Fragments in bromodomain drug discovery” (Medchemcomm, 2015)
